Measured values published in PubChem BioAssay AID1347076 (National Center for Advancing Translational Sciences (NCATS), 2019).
Screen size: about 400,000 compounds; about 13,000 (3.2%) were called active. This list was built around the results that the source calls inconclusive (neither active nor inactive); the mix of calls is not that of the screen. The call rests on the fitted dose curve; in most records, active means well fitted cell-killing curve with a large enough effect; inconclusive means small, poorly fitted or top-dose-only effect, or effect the other way; inactive means flat fitted curve, though single readings scatter. Potencies beside an inconclusive call are fits to weak or partial responses and may not hold up.

Assay: qHTS assay for MDR1-selective chemotherapeutics: Primary screen using the drug-selected MDR subline cells KB-V1; further: nearly all actives have a fitted effect of over 60% in size
Settings: KB-V1 MDR cells viability, CellTiter-Glo, 72 h; series mostly up to 46.1 µM
Procedure, shortened: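 KB-V1, DMEM (no phenol red) + 10% FBS; cpd pin-transferred, titration series; 72 h, 37 degrees C; CellTiter-Glo, luminescence. Data normalized, curve-fit.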
Potency means the concentration at half of the fitted maximal effect.

SMILES	Potency
CCSc1nnc(NC(=O)CSc2nccn2-c2cccc(C)c2)s1	active: 16.4 µM
COC(=O)[C@H]1C[C@H]2[C@@H]3CC[C@H]4C[C@@H](OC)CC[C@]4(C)[C@H]3CC[C@]2(C)[C@@]2(CCCO2)O1	inactive
COc1ccc(OCCC(=O)NCc2ccccc2)cc1	inactive
COc1cccc(NC(=O)C(=O)c2cn(CC(=O)N3CCCC3)c3ccccc23)c1	inconclusive: 3.26 µM [rising, partial curve, poor fit]
CN1CCC(=C2c3ccccc3C=Cc3ccccc32)CC1	inconclusive: 20.6 µM [cytotoxic, partial curve]
CC1CCN(S(=O)(=O)c2csc(C(=O)Nc3ccccc3)c2)CC1	inconclusive: 16.4 µM [cytotoxic, single point]
Cc1c(Cl)cccc1NC(=S)NCCc1ccc(C(F)(F)F)cc1	inconclusive: 18.4 µM [cytotoxic, single point]
O=C(NCCOc1ccccc1F)c1ccccc1SCc1ccc(F)cc1	inconclusive: 23.1 µM [cytotoxic, single point]
COc1ccc(N(CC(=O)NCc2ccc(C)cc2)S(=O)(=O)c2c(C)nn(C)c2C)cc1	inconclusive: 20.6 µM [cytotoxic, partial curve, poor fit]
Cc1nonc1C(=O)N/N=C/c1ccc(O)cc1O	inconclusive: 11.6 µM [cytotoxic, partial curve]
CCOC(=O)c1c(C)[nH]c(C)c1C(=O)CSc1nc2ccccc2n1CCC#N	inconclusive: 18.4 µM [cytotoxic, partial curve, poor fit]
CC1(C(=O)Nc2cccc(C#N)c2)CCN1C(=O)Cc1ccc(-c2ccccc2)cc1 (stereo not drawn)	inactive
O=C(NCc1cccs1)c1ccc(CSc2nc3ccncc3n2Cc2cccc(F)c2)cc1	inconclusive: 23.1 µM [rising, single point]
COc1ccc(NC(=O)CN(C)CC(=O)Nc2cccc3ccccc23)c(OC)c1	inconclusive: 4.61 µM [cytotoxic, partial curve]
CN(C(=O)c1cccc(Nc2ccc(-c3ccc4c(c3)OCCO4)nn2)c1)C1CCCCC1	inconclusive: 23.1 µM [cytotoxic, single point]
CCOc1cc(/C=N/NC(=O)c2ccncc2)ccc1OC(=O)c1ccco1	inconclusive: 16.4 µM [rising, single point]
O=C(Nc1ccc(S(=O)(=O)NCc2ccco2)cc1)c1ccc2ccccc2n1	inconclusive: 29.1 µM [cytotoxic, single point]
COc1ccc(-c2cc(C(F)(F)F)nc(NCc3ccco3)n2)cc1OC	active: 2.31 µM

Reprinted at random: two compounds from above.
SMILES	Potency
O=C(NCCOc1ccccc1F)c1ccccc1SCc1ccc(F)cc1	inconclusive: 23.1 µM [cytotoxic, single point]
COC(=O)[C@H]1C[C@H]2[C@@H]3CC[C@H]4C[C@@H](OC)CC[C@]4(C)[C@H]3CC[C@]2(C)[C@@]2(CCCO2)O1	inactive
